Measured values: patent US20110039808A1, “Multitarget Compounds Active at a PPAR and Cannabinoid Receptor” (priority 2007, published 2011)
Structures were worked out from names or drawings and are uncertain.

Protein sequences, listed by entry. Tags and fused reporters are not part of them.
UniProt P37231, whole entry: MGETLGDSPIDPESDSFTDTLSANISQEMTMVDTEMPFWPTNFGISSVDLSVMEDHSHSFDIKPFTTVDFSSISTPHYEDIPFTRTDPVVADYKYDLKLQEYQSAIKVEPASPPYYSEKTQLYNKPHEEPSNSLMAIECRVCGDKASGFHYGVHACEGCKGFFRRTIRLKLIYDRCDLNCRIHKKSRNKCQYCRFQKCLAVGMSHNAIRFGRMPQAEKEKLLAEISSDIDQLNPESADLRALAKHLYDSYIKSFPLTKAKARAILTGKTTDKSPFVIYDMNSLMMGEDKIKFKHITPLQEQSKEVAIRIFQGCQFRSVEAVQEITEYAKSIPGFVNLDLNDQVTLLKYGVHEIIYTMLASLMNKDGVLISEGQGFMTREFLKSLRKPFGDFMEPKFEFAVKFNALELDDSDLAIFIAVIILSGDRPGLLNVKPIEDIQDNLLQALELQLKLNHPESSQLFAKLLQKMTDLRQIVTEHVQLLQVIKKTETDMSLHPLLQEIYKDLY

Biological target: PPAR-γ receptor (Homo sapiens, UniProt P37231)
Settings: read-out: EC50 PPAR-γ cell free; average EC50 determined in duplicate, FIGS. 12 and 13

Row | SMILES | EC50 [µM]
1 | CCCCCOc1c(OC)ccc2cc(C(=O)NCc3ccc(C(=O)O)c(O)c3)c(=O)[nH]c12 | 7.15
2 | CCCCCOc1c(OC)ccc2cc(C(=O)NCc3ccc(O)c(C(=O)O)c3)c(=O)[nH]c12 | 7.75
